No constants are given. Whether binding was seen depends on the method and setting. For some assays here: Binding seen in cells or lysates may run through a third protein. Some entries that bind do so weakly or less than the wild type. Blank lines part the entries; values can stand above or below the molecule they belong to.
What was measured:
[1] = molecular target: EphA2 3E mutant (T898E/S899E/S901E), full length, labeled with mTurquoise or EYFP (human) (UniProt P29317); assay: FRET or BRET
[2] = molecular target: EphA2 5A mutant (S892A/S897A/T898A/S899A/S901A), full length, labeled with mTurquoise or EYFP (human) (UniProt P29317); assay: FRET or BRET
[3] = molecular target: EphA2 5E mutant (S892E/S897E/T898E/S899E/S901E), full length, labeled with mTurquoise or EYFP (human) (UniProt P29317); assay: FRET or BRET
[4] = molecular target: EphA2 ASAAA mutant (S892A/T898A/S899A/S901A), full length, labeled with mTurquoise or EYFP (human) (UniProt P29317); assay: FRET or BRET
[5] = molecular target: EphA2 S892A mutant, full length, labeled with mTurquoise or EYFP (human) (UniProt P29317); assay: FRET or BRET
[6] = molecular target: EphA2 S892E mutant, full length, labeled with mTurquoise or EYFP (human) (UniProt P29317); assay: FRET or BRET
[7] = molecular target: EphA2 S897A mutant, full length, labeled with mTurquoise or EYFP (human) (UniProt P29317); assay: FRET or BRET
[8] = molecular target: EphA2 S897E mutant, full length, labeled with mTurquoise or EYFP (human) (UniProt P29317); assay: FRET or BRET
[9] = molecular target: EphA2 intracellular region (residues D590-I976), wild type (human) (UniProt P29317); assay: AUC
[10] = molecular target: EphA2 S897A expressed in HEK293 cells (pulldown with Ephexin4) (human) (UniProt P29317); assay: pull-down
[11] = molecular target: EphA2 expressed in HEK293 cells (pulldown with Ephexin4) (human) (UniProt P29317); assay: pull-down

Amino acid sequences for entries named in this document (tags omitted). A change or cut given only in a name is not applied to a line headed by its entry. Chains listed by the source or under a name are the forms on record and can include a tag or linker. Residues count along the entry.
UniProt P29317: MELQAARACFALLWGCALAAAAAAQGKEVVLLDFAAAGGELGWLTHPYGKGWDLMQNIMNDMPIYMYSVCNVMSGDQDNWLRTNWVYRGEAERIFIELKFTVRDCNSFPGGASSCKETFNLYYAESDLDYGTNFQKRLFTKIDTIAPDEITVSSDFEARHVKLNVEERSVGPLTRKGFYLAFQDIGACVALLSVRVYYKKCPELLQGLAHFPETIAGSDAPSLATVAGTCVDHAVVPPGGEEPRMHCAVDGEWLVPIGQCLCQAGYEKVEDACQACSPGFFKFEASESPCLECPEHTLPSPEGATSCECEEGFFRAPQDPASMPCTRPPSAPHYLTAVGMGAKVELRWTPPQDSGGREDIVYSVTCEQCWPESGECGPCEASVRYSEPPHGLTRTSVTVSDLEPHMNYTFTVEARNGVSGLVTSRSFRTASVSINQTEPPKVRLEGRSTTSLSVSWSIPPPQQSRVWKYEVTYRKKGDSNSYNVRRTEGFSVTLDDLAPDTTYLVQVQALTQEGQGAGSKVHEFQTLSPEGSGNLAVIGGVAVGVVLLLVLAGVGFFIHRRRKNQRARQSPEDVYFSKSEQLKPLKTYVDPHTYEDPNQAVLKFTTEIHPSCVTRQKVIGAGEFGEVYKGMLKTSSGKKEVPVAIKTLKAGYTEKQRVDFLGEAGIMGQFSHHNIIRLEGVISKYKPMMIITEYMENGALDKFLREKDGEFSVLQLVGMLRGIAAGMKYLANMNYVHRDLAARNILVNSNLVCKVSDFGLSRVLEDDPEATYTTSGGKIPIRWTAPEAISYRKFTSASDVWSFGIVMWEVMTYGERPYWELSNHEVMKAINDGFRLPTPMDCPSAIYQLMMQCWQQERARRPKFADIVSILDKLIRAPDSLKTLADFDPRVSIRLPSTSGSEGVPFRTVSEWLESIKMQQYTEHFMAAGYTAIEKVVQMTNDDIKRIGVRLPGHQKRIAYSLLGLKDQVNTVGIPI
EphA2 expressed in HEK293 cells (pulldown with Ephexin4): residues 24-976 of P29317
EphA2 3E mutant (T898E/S899E/S901E), full length, labeled with mTurquoise or EYFP (P29317, form named): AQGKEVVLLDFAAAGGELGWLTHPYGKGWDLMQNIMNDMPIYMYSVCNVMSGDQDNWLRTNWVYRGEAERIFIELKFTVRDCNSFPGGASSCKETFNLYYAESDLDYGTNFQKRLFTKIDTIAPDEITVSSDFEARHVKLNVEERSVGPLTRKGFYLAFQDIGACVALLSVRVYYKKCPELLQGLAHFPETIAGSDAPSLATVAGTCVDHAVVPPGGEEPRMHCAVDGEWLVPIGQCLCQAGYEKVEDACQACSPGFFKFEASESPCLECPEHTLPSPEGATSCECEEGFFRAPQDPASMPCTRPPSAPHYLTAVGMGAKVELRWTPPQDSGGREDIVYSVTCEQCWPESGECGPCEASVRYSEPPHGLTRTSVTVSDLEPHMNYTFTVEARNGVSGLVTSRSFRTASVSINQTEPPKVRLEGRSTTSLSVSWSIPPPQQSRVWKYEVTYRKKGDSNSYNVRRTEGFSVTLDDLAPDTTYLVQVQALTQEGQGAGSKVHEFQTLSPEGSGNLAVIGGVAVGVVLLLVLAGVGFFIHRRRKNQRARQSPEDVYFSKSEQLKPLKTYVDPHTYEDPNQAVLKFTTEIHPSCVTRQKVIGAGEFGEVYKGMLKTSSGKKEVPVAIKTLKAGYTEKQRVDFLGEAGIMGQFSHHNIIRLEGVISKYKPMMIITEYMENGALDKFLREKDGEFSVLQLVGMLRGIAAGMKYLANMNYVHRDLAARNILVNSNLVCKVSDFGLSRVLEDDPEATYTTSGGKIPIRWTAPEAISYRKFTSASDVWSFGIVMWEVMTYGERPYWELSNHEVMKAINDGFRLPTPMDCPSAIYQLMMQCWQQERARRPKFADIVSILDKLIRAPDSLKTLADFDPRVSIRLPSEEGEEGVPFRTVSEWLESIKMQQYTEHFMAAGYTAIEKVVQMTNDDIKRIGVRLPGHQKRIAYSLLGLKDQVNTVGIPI
EphA2 5A mutant (S892A/S897A/T898A/S899A/S901A), full length, labeled with mTurquoise or EYFP (P29317, form named): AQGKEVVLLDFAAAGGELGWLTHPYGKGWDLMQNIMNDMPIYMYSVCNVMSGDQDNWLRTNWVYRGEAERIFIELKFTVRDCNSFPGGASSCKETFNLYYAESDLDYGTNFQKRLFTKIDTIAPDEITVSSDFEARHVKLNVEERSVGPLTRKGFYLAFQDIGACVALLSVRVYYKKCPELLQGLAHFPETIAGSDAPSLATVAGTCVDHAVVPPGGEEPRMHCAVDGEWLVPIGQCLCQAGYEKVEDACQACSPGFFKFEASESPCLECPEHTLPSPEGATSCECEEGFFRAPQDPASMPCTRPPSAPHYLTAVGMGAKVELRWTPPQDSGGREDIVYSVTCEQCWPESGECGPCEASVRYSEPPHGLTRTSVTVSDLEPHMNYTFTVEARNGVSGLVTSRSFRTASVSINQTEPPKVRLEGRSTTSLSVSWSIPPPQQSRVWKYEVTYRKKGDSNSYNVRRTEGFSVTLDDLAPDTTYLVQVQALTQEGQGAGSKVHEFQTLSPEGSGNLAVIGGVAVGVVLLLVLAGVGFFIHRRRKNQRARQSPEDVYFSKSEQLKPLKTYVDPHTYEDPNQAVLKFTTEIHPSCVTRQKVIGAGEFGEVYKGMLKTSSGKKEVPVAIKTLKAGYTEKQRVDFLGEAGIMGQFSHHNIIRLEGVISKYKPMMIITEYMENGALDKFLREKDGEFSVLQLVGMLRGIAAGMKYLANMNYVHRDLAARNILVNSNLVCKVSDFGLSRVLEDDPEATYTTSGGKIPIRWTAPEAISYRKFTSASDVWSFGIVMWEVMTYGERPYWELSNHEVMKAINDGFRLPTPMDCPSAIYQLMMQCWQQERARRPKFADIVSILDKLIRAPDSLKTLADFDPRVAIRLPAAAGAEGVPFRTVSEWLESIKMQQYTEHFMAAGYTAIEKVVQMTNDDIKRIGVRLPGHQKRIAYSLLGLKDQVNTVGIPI
EphA2 5E mutant (S892E/S897E/T898E/S899E/S901E), full length, labeled with mTurquoise or EYFP (P29317, form named): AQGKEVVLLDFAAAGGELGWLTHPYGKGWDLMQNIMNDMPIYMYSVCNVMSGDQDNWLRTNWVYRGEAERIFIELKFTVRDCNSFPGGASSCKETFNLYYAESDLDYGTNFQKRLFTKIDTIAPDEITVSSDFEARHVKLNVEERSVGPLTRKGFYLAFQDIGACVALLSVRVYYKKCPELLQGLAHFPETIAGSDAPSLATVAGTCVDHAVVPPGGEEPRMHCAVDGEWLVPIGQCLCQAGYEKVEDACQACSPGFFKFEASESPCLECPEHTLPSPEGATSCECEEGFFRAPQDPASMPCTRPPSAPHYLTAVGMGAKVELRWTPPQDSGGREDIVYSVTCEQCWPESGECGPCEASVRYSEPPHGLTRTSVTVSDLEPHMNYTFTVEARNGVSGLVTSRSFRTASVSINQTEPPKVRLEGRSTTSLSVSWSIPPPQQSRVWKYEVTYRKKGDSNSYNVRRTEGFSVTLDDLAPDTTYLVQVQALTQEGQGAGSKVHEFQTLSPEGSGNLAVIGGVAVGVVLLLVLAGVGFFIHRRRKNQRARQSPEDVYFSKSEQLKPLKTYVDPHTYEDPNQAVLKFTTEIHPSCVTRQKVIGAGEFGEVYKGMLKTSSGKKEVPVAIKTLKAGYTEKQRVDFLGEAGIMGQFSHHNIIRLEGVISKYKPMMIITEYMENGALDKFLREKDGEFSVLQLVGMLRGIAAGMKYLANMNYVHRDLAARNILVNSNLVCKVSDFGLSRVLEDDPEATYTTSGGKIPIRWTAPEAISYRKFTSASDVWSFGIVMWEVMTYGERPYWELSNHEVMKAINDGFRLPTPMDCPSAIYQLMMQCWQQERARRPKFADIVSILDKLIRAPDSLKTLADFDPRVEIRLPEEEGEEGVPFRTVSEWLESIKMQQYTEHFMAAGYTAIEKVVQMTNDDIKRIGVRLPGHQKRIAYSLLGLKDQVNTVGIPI
EphA2 ASAAA mutant (S892A/T898A/S899A/S901A), full length, labeled with mTurquoise or EYFP (P29317, form named): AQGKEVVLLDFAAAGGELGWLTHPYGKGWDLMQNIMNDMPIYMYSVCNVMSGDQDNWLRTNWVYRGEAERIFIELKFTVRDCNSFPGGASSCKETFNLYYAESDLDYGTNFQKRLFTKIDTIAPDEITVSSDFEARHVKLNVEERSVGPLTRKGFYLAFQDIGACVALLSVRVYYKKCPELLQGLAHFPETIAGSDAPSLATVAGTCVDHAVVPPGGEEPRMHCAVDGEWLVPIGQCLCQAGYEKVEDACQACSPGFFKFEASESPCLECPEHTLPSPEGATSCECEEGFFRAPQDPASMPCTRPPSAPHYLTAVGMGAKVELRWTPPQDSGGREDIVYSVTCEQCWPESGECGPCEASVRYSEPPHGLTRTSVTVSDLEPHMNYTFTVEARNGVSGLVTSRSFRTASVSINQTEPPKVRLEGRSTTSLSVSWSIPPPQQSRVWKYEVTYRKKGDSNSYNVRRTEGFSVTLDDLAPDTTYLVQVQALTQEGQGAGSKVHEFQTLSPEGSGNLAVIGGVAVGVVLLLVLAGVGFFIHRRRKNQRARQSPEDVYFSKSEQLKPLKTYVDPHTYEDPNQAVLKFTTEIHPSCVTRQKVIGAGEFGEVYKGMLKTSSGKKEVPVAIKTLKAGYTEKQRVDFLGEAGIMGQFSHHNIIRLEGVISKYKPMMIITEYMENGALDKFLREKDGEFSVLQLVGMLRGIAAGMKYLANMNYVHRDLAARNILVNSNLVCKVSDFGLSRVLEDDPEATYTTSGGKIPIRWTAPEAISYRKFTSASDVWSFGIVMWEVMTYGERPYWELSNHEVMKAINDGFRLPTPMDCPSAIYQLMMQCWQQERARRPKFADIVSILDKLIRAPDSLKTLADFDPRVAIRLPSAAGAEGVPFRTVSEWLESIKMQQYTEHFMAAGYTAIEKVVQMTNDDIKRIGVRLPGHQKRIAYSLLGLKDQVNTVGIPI
EphA2 S892A mutant, full length, labeled with mTurquoise or EYFP (P29317, form named): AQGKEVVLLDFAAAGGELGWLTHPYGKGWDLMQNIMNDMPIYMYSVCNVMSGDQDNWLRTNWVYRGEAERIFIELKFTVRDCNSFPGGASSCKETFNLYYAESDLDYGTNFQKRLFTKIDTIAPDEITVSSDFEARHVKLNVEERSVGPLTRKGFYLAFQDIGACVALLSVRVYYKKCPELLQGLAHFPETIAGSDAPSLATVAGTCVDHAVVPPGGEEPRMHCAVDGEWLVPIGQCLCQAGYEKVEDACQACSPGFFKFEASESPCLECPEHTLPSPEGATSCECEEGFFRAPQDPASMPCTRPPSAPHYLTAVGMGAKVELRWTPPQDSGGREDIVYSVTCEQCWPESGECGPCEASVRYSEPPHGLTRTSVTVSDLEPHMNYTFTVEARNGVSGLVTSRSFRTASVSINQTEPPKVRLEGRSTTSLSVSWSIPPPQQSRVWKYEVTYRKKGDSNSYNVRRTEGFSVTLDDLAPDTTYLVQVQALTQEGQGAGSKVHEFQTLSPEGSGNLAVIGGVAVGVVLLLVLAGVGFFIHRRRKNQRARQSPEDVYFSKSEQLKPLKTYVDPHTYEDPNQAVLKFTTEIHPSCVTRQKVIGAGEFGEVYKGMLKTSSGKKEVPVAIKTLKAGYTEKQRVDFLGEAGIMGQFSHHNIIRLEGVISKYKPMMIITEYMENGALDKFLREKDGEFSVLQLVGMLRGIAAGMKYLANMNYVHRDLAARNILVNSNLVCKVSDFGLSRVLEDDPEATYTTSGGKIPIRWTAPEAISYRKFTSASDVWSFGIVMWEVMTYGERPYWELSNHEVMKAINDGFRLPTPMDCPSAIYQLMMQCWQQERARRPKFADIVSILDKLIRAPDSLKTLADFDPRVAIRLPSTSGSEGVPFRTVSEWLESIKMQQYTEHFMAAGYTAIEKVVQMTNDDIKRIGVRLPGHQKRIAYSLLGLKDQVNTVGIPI

Molecule: EphA2 5A mutant (S892A/S897A/T898A/S899A/S901A), full length, labeled with mTurquoise or EYFP (from UniProt P29317 24-976) (receptor)
binding [2]: binds

Molecule: EphA2 ASAAA mutant (S892A/T898A/S899A/S901A), full length, labeled with mTurquoise or EYFP (from UniProt P29317 24-976) (receptor)
binding [4]: binds

Molecule: EphA2 S892E mutant, full length, labeled with mTurquoise or EYFP (from UniProt P29317 24-976) (receptor)
binding [6]: binds

Molecule: EphA2 intracellular region (residues D590-I976), wild type (from UniProt P29317 590-976) (domain or fragment)
binding [9]: no binding (tested: ~9 μM)

Now from value to molecule:

binding [1]: binds
Molecule: EphA2 3E mutant (T898E/S899E/S901E), full length, labeled with mTurquoise or EYFP (from UniProt P29317 24-976) (receptor)

binding [3]: binds
Molecule: EphA2 5E mutant (S892E/S897E/T898E/S899E/S901E), full length, labeled with mTurquoise or EYFP (from UniProt P29317 24-976) (receptor)

binding [5]: binds
Molecule: EphA2 S892A mutant, full length, labeled with mTurquoise or EYFP (from UniProt P29317 24-976) (receptor)

binding [7]: binds
Molecule: EphA2 S897A mutant, full length, labeled with mTurquoise or EYFP (from UniProt P29317 24-976) (receptor)

binding [8]: binds
Molecule: EphA2 S897E mutant, full length, labeled with mTurquoise or EYFP (from UniProt P29317 24-976) (receptor)

binding [10]: binds weakly | binding [11]: binds weakly
B1: Ephexin4 expressed in HEK293 cells (protein, UniProt Q5VV41 1-709)
chain: MAQRHSDSSLEEKLLGHRFHSELRLDAGGNPASGLPMVRGSPRVRDDAAFQPQVPAPPQPRPPGHEEPWPIVLSTESPAALKLGTQQLIPKSLAVASKAKTPARHQSFGAAVLSREAARRDPKLLPAPSFSLDDMDVDKDPGGMLRRNLRNQSYRAAMKGLGKPGGQGDAIQLSPKLQALAEEPSQPHTRSPAKNKKTLGRKRGHKGSFKDDPQLYQEIQERGLNTSQESDDDILDESSSPEGTQKVDATIVVKSYRPAQVTWSQLPEVVELGILDQLSTEERKRQEAMFEILTSEFSYQHSLSILVEEFLQSKELRATVTQMEHHHLFSNILDVLGASQRFFEDLEQRHKAQVLVEDISDILEEHAEKHFHPYIAYCSNEVYQQRTLQKLISSNAAFREALREIERRPACGGLPMLSFLILPMQRVTRLPLLMDTLCLKTQGHSERYKAASRALKAISKLVRQCNEGAHRMERMEQMYTLHTQLDFSKVKSLPLISASRWLLKRGELFLVEETGLFRKIASRPTCYLFLFNDVLVVTKKKSEESYMVQDYAQMNHIQVEKIEPSELPLPGGGNRSSSVPHPFQVTLLRNSEGRQEQLLLSSDSASDRARWIVALTHSERQWQGLSSKGDLPQVEITKAFFAKQADEVTLQQADVVLVLQQEDGWLYGERLRDGETGWFPEDFARFITSRVAVEGNVRRMERLRVETDV
